Results on two compounds are retold here after patent publication US20230074545A1, “TREATMENT OF CANCER WITH CDK12/13 INHIBITORS” (Kinnate Biopharma Inc., priority 2019, published 2023).

This data set concerns RNA polymerase II. Put plainly: Inhibition of phosphorylation of RNA polymerase II in NCI-H82 cells. The conditions noted are these: dose-response curve fit, 2 hours. It is filed as cell-based. The protocol: CDK12 and CDK13 phosphorylate RNA polymerase II. The ability of compound 1 to inhibit phosphorylation of RNA polymerase II was analyzed in NCI-H82 cells. 200,000 cells were plated in each well of a 96 well MSD plate. Cells were treated with compound 1, THZ531 (a positive control), or E9 at concentrations between 4 μM to 126.4 pM (0.5 log serial dilutions) for 2 hours. THZ531 and E9 are further discussed in Gao et al, Cell Chemical Biology 2017. The amount of phosphorylated RNA polymerase II and the total amount of RNA polymerase II was analyzed using antibodies. The values were normalized by taking the ratio of the phosphorylated RNA polymerase II to the total RNA polymerase II. As depicted in FIG. 3A (THZ531), FIG. 3B (Compound 1), and Table 6, increasing the concentration of compound 1 results in a dose-specific increase in the inhibition of phosphorylation of RNA polymerase II.

`C=CC(=O)Nc1ccc(C(=O)N2CC[C@@H](Nc3ncc(Cl)c(OC)n3)C2)cc1` [Compound 1, (R)-N-(4-(3-((5-chloro-4-methoxypyrimidin-2-yl)amino)pyrrolidine-1-carbonyl)phenyl)acrylamide]: the Bottom was 0.1958, the “Hill Slope” value came to 1.438 and the Top is listed as 85.35.
Taken in the same sequence, the figures for `CN(C)C/C=C/C(=O)Nc1ccc(C(=O)N2CCC[C@@H](Nc3ncc(Cl)c(-c4c[nH]c5ccccc45)n3)C2)cc1` [THZ531, reference compound] were 9.677, 1.412 and 83.25.
